No constants are given. Whether binding was seen depends on the method and setting. Binding seen in cells or lysates may run through a third protein. Some results given as binding are weak or reduced against the parent protein; the word gives no strength.

Amino acid sequences for entries named in this document (tags omitted).
UniProt Q13263: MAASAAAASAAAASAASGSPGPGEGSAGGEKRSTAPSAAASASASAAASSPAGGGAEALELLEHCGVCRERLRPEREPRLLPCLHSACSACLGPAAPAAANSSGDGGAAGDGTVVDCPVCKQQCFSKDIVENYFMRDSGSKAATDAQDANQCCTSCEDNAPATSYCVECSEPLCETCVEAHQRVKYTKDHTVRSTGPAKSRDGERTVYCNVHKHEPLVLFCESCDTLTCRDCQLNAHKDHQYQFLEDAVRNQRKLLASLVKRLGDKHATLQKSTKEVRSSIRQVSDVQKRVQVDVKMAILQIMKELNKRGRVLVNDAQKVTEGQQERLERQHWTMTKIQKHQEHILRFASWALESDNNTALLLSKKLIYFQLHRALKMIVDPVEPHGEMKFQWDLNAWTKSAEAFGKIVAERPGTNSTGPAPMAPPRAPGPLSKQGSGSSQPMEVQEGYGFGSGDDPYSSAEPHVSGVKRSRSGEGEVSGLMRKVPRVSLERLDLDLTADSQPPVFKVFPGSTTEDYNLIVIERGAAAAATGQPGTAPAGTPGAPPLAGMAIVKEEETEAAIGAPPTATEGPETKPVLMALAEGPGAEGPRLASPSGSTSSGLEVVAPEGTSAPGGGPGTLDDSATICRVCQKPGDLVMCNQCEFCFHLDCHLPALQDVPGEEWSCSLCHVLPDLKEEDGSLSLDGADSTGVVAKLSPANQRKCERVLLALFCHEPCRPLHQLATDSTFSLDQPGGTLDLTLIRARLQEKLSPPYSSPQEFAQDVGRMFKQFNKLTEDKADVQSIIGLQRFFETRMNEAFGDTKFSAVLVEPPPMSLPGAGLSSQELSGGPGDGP
UniProt O14980: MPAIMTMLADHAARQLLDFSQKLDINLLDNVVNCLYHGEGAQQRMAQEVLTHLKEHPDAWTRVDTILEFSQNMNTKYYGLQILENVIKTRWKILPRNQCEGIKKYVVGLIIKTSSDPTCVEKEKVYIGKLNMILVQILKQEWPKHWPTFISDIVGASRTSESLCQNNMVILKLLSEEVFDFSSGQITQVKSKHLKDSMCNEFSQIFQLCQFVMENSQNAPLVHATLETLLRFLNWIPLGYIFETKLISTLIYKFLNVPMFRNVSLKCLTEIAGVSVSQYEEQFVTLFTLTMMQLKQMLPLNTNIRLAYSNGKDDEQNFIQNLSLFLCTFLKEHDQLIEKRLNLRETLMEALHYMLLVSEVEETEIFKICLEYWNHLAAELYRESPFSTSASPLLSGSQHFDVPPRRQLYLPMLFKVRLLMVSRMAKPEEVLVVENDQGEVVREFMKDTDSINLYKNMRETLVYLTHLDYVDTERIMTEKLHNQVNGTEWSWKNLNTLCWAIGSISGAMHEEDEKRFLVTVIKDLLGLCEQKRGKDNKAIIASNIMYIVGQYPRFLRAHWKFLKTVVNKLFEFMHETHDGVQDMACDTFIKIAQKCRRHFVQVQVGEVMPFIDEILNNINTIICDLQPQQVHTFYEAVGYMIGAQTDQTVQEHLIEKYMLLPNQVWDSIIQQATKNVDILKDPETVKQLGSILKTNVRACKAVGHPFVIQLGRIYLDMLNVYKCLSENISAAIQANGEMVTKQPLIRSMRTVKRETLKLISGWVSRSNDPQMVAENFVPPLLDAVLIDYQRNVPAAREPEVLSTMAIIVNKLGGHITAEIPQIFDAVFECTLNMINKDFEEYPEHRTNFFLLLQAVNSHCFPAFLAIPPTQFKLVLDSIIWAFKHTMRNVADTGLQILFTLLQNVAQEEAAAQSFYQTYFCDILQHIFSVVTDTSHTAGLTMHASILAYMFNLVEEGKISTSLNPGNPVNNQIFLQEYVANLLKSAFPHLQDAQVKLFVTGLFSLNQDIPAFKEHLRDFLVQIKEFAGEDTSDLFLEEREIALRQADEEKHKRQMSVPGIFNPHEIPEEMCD

The target in assay [1] is Flag-TRIM28 (WT), full length (UniProt Q13263). The experiment in a line: co-IP; HEK-293T transfected with Flag-TRIM28 (WT) or truncation mutants; Co-IP with Flag antibodies; blot for CRM1 (Fig. 4G).
Assay [2] deals with Flag-CRM1 expressed in HEK-293T cells (UniProt O14980). Briefly: co-IP; HEK-293T transfected with Flag-CRM1; Co-IP with Flag antibodies; blot for Flag-CRM1 and TRIM28 (Fig. 4C).

In the case of “CRM1 co-precipitated with Flag-TRIM28 in HEK-293T cells (Fig. 4G) (from UniProt O14980 1-1071)”, the binding entry in assay [1] is on record as “binds”.
As for “endogenous TRIM28 of HEK-293T cells (from UniProt Q13263 1-835)”, the binding entry in assay [2] is on record as “binds”.
